Test results taken from patent publication US20030198640A1.
These are yes or no findings as the source states them, for the method shown. For some assays here: Binding seen in cells or lysates may run through a third protein. Some binding calls cover weakened binding; strength is not graded here. Sequences can lack the tags named with a protein.

Amino acid sequences for entries named in this document (tags omitted). A change or cut given only in a name is not applied to a line headed by its entry. Residues count along the entry.
UniProt P19438: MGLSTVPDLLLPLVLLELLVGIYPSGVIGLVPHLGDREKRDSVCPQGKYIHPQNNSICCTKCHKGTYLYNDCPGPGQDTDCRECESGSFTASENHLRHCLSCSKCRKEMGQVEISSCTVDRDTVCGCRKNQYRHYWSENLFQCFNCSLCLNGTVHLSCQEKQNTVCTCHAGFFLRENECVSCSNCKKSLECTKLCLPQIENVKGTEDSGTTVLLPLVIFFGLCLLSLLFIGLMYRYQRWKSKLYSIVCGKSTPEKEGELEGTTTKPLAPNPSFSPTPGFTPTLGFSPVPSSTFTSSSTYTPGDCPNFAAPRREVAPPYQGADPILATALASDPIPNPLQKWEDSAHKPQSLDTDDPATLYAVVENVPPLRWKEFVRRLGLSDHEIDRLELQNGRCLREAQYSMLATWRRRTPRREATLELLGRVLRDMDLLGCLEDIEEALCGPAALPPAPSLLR
Flag-TNFR-1, expressed in 293 cells: residues 30-455 of P19438
GST fusion of the cytoplasmic domain of TNFR-1: residues 233-455 of P19438
UniProt P48023: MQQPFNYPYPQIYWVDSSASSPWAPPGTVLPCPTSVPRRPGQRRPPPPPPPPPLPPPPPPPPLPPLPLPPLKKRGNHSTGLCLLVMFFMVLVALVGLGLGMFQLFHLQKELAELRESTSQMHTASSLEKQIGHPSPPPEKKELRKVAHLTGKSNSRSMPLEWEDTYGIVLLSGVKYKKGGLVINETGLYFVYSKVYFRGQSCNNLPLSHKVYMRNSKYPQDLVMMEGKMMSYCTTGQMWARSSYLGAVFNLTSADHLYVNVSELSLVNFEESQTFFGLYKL

T1: Flag-epitope tagged DR3 (Flag-DR3), expressed in 293 cells (human) (UniProt Q93038)
T1 sequence: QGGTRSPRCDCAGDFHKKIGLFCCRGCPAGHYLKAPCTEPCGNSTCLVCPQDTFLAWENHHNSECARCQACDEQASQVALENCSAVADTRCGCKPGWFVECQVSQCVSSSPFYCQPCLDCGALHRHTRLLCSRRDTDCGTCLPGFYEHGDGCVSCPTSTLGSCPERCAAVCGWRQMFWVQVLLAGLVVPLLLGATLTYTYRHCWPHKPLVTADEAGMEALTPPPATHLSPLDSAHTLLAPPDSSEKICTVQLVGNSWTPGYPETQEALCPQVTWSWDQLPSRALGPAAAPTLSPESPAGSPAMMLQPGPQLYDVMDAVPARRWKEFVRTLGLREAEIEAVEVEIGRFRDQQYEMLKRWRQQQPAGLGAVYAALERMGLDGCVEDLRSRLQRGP

B1: TRADD (myc-TRADD) (protein, UniProt Q15628 1-312, looked up, not shown: small tags and cut ends)
chain: MAAGQNGHEEWVGSAYLFVESSLDKVVLSDAYAHPQQKVAVYRALQAALAESGGSPDVLQMLKIHRSDPQLIVQLRFCGRQPCGRFLRAYREGALRAALQRSLAAALAQHSVPLQLELRAGAERLDALLADEERCLSCILAQQPDRLRDEELAELEDALRNLKCGSGARGGDGEVASAPLQPPVPSLSEVKPPPPPPPAQTFLFQGQPVVNRPLSLKDQQTFARSVGLKWRKVGRSLQRGCRALRDPALDSLAYEYEREGLYEQAFQLLRRFVQAEGRRATLQRLVEALEENELTSLAEDLLGLTDPNGGLA
B2: TR6-Fc (full-length human TNFR-6 alpha, SEQ ID NO:6 aa 1-300, fused to the Fc domain of human IgG1) (Fc fusion, not shown: a dimerising Fc or GST)
chain: VAETPTYPWRDAETGERLVCAQCPPGTFVQRPCRRDSPTTCGPCPPRHYTQFWNYLERCRYCNVLCGEREEEARACHATHNRACRCRTGFFAHAGFCLEHASCPPGAGVIAPGTPSQNTQCQPCPPGTFSASSSSSEQCQPHRNCTALGLALNVPGSSSHDTLCTSCTGFPLSTRVPGAEECERAVIDFVAFQDISIKRLQRLLQALEAPEGWGPTPRAGRAALQLKLRRRLTELLGAQDGALLVRLLQALRVARMPGLERSVRERFLPVH
B3: full-length human TR6 (without Fc), baculovirus/Sf9 (receptor)
chain: B2 chain

How the values were obtained:
[1] = target: GST fusion of the cytoplasmic domain of TNFR-1 (UniProt P19438); assay: GST pull-down of in vitro translated 35S-labelled protein
[2] = target: T1, Flag-epitope tagged DR3 (Flag-DR3), expressed in 293 cells (human); assay: anti-Flag co-immunoprecipitation from transfected 293 cells, anti-myc blot
[3] = target: Flag-TNFR-1, expressed in 293 cells (UniProt P19438); assay: as above
[4] = target: FasL (form not stated, BIAcore of Example 21) (Homo sapiens (Human)) (UniProt P48023); assay: BIAcore (not described further)

Binder | binding [1] | binding [2] | binding [3] | binding [4]
B1 | binds | binds | binds | 
B2 |  |  |  | binds
B3 |  |  |  | binds
